Data reported in PMC12454907.
No constants are given. Whether binding was seen depends on the method and setting. In cells and extracts the contact can be indirect. These calls come from enrichment with a bait or labelling near it, and not all partners need be listed. Where a sequence is shown, tags or fusion partners need not be part of it.

Biological target: T1, OsSAP5-MYC (rice (Oryza sativa)) (UniProt Q6H754)
T1 sequence: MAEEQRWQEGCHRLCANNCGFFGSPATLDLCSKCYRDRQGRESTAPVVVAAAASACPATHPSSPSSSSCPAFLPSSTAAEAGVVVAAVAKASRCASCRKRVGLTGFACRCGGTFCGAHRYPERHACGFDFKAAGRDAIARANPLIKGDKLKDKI
Assay: affinity purification with mass spectrometry; total protein of OsSAP5-MYC and NIP seedlings in Co-IP buffer, anti-c-Myc affinity beads 4 h at 4°C, eluate analysed by LC-MS/MS

- binding: binds
B1: OsGF14c (LOC_Os08g33370), endogenous (protein, UniProt Q6ZKC0 1-256)
chain: MSREENVYMAKLAEQAERYEEMVEYMEKVAKTVDVEELTVEERNLLSVAYKNVIGARRASWRIVSSIEQKEEGRGNEEHVTLIKEYRGKIEAELSKICDGILKLLDSHLVPSSTAAESKVFYLKMKGDYHRYLAEFKTGAERKEAAESTMVAYKAAQDIALADLAPTHPIRLGLALNFSVFYYEILNSPDKACNLAKQAFDEAISELDTLGEESYKDSTLIMQLLRDNLTLWTSDLTEDGGDEVKEASKGDACEGQ
